Experimental data from patent publication US11839614B2, “Methods for treating or mitigating cardiotoxicity characterized by inhibition of adenosine A2 signaling and/or adenosine A2 receptor expression” (INTRA-CELLULAR THERAPIES, INC., priority 2018, dated 2023).
For at least one compound, name, drawing or mass did not settle the structure.

Test system: myocyte cAMP
Experiment: Whole cell cAMP in isolated rabbit myocytes
Assay type: cell-based
Conditions: agent alone
Excerpt: This is consistent with prior studies showing locally generated cAMP from β-AR and its modulation by PDE3 occur in local subcellular domains that are not easily detected in whole cell lysates32.

`C=C[C@@]1(C)CC(=O)[C@]2(O)[C@@]3(C)[C@@H](O)CCC(C)(C)[C@@H]3[C@H](O)[C@H](OC(C)=O)[C@@]2(C)O1` [forskolin] was tested, and the “whole cell cAMP” value was “resulted in a rise in cAMP”.
